Measurements published in article PMC5800941 (Biochemistry, 2017).

The chains behind the UniProt entries cited, without tags or fusion partners. Where a name states a change or a piece, a line headed by the entry shows the natural chain unless it says otherwise.
UniProt P08684: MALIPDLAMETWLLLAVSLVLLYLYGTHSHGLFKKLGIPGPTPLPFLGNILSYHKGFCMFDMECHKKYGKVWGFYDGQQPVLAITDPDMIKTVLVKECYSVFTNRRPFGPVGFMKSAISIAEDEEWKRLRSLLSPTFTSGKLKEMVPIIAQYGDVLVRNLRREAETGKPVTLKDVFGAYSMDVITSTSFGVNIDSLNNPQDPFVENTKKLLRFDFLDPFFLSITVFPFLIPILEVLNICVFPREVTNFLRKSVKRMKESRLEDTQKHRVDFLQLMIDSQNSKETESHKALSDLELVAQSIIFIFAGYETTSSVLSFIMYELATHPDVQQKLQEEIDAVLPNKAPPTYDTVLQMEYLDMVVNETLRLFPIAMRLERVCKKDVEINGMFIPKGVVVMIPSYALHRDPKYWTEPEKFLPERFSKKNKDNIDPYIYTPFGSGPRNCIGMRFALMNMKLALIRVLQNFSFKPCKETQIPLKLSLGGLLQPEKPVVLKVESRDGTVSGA

Biological target: CYP3A4 in POPC Nanodiscs (Homo sapiens, UniProt P08684, S18F)
Assay: Product formation
Type: biochemical
Conditions: binding intermediate with 1 substrate molecule bound; 37 C, pH 7.4

- Product formation rate: 17 [15.6 – 21.5] min^−1
Structure (SMILES): CC(C)c1c(C(=O)Nc2ccccc2)c(-c2ccccc2)c(-c2ccc(F)cc2)n1CC[C@@H](O)C[C@@H](O)CC(=O)O [ARVS, atorvastatin]
